Source: patent publication US4313943A, “7-Chloro-2,3-dihydro-5-phenyl-1-propargyl-1H-1,4-benzodiazepine-2-one, and a pharmaceutical composition thereof” (priority 1972, dated 1982)

Key:
[1] = Acute toxicity comparison (LD50, Litchfield and Wilcoxan); details: in vivo; Table 11; oral; species not given
Description: Toxicity in test animals to the test compounds in terms of LD50 after oral and intraperitoneal administration was determined according to the procedure of Litchfield and Wilcoxan (1949) and the hypnotic effect on test animals was determined in accordance with the method of Janssen (1959).

[2] = Motor coordination in rats (rotarod, Dunham and Miya 1957); details: rat, po

Q: Which LD50 [1] does the source give for CN1C(=O)CN=C(c2ccccc2)c2cc(Cl)ccc21 [Compound 3, 7-chloro-1,3-dihydro-1-methyl-5-phenyl-2H-1,4-benzodiazepin-2-one, reference compound] here?
A: 2080 mg/kg

Q: And the TD50 [2]?
A: 14.2 mg/kg
